{"sequences": {"note": "The chains behind the UniProt entries cited, without tags or fusion partners.", "UniProt P0DTC3": "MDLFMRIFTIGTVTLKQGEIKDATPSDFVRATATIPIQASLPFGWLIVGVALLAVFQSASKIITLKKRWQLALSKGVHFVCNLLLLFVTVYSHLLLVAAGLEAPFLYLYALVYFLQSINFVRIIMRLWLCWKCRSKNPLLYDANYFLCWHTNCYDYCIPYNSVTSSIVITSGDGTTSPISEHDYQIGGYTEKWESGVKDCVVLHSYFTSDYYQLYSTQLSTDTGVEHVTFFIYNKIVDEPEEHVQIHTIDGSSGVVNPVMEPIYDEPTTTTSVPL", "UniProt P0DTD3": "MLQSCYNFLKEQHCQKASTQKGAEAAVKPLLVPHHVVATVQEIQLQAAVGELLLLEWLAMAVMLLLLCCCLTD", "UniProt P0DTD2": "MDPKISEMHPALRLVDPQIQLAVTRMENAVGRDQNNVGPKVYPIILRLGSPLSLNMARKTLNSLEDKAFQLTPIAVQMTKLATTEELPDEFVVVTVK"}, "source": "paper PMC7239059", "binders": {"B1": {"name": "RNF41/Nrdp1, Q9H4P4 1-317 (protein)", "chain": "MGYDVTRFQGDVDEDLICPICSGVLEEPVQAPHCEHAFCNACITQWFSQQQTCPVDRSVVTVAHLRPVPRIMRNMLSKLQIACDNAVFGCSAVVRLDNLMSHLSDCEHNPKRPVTCEQGCGLEMPKDELPNHNCIKHLRSVVQQQQTRIAELEKTSAEHKHQLAEQKRDIQLLKAYMRAIRSVNPNLQNLEETIEYNEILEWVNSLQPARVTRWGGMISTPDAVLQAVIKRSLVESGCPASIVNELIENAHERSWPQGLATLETRQMNRRYYENYVAKRIPGKQAVVVMACENQHMGDDMVQEPGLVMIFAHGVEEI"}, "B2": {"name": "TRIM59 (protein, UniProt Q8IWR1 1-403)", "chain": "MHNFEEELTCPICYSIFEDPRVLPCSHTFCRNCLENILQASGNFYIWRPLRIPLKCPNCRSITEIAPTGIESLPVNFALRAIIEKYQQEDHPDIVTCPEHYRQPLNVYCLLDKKLVCGHCLTIGQHHGHPIDDLQSAYLKEKDTPQKLLEQLTDTHWTDLTHLIEKLKEQKSHSEKMIQGDKEAVLQYFKELNDTLEQKKKSFLTALCDVGNLINQEYTPQIERMKEIREQQLELMALTISLQEESPLKFLEKVDDVRQHVQILKQRPLPEVQPVEIYPRVSKILKEEWSRTEIGQIKNVLIPKMKISPKRMSCSWPGKDEKEVEFLKILNIVVVTLISVILMSILFFNQHIITFLSEITLIWFSEASLSVYQSLSNSLHKVKNILCHIFYLLKEFVWKIVSH"}, "B3": {"name": "NDFIP2 (protein, UniProt Q9NV92 1-336)", "chain": "MARRRSQRVCASGPSMLNSARGAPELLRGTATNAEVSAAAAGATGSEELPPGDRGCRNGGGRGPAATTSSTGVAVGAEHGEDSLSRKPDPEPGRMDHHQPGTGRYQVLLNEEDNSESSAIEQPPTSNPAPQIVQAASSAPALETDSSPPPYSSITVEVPTTSDTEVYGEFYPVPPPYSVATSLPTYDEAEKAKAAAMAAAAAETSQRIQEEECPPRDDFSDADQLRVGNDGIFMLAFFMAFIFNWLGFCLSFCITNTIAGRYGAICGFGLSLIKWILIVRFSDYFTGYFNGQYWLWWIFLVLGLLLFFRGFVNYLKVRNMSESMAAAHRTRYFFLL"}, "B4": {"name": "GLA (protein, UniProt P06280 32-429)", "chain": "LDNGLARTPTMGWLHWERFMCNLDCQEEPDSCISEKLFMEMAELMVSEGWKDAGYEYLCIDDCWMAPQRDSEGRLQADPQRFPHGIRQLANYVHSKGLKLGIYADVGNKTCAGFPGSFGYYDIDAQTFADWGVDLLKFDGCYCDSLENLADGYKHMSLALNRTGRSIVYSCEWPLYMWPFQKPNYTEIRQYCNHWRNFADIDDSWKSIKSILDWTSFNQERIVDVAGPGGWNDPDMLVIGNFGLSWNQQVTQMALWAIMAAPLFMSNDLRHISPQAKALLQDKDVIAINQDPLGKQGYQLRQGDNFEVWERPLSGLAWAVAMINRQEIGGPRSYTIAVASLGKGVACNPACFITQLLPVKRKLGFYEWTSRLRSHINPTGTVLLQLENTMQMSLKDLL"}, "B5": {"name": "DCTPP1 (protein, UniProt Q9H773 1-170)", "chain": "MSVAGGEIRGDTGGEDTAAPGRFSFSPEPTLEDIRRLHAEFAAERDWEQFHQPRNLLLALVGEVGELAELFQWKTDGEPGPQGWSPRERAALQEELSDVLIYLVALAARCRVDLPLAVLSKMDINRRRYPAHLARSSSRKYTELPHGAISEDQAVGPADIPCDSTGQTST"}}, "test_in_all_cases": "affinity purification with mass spectrometry", "key": {"[1]": {"target": "SARS-CoV-2 Nsp15 (SARS-CoV-2), P0DTD1", "conditions": "remark: other sources report otherwise"}, "[2]": {"target": "SARS-CoV-2 Orf3a (SARS-CoV-2) (UniProt P0DTC3)"}, "[3]": {"target": "SARS-CoV-2 Orf9c (SARS-CoV-2) (UniProt P0DTD3)"}, "[4]": {"target": "SARS-CoV-2 Nsp14 (SARS-CoV-2) (UniProt P0DTD1)"}, "[5]": {"target": "SARS-CoV-2 Orf9b (SARS-CoV-2) (UniProt P0DTD2)"}}, "note": "No constants are given. Whether binding was seen depends on the method and setting. Binding seen in cells or lysates may run through a third protein. Here binding means that the protein was enriched with, or labelled near, the bait; the list need not be complete."}
{"binder": "B1", "values": [{"measurement": "binding", "setting": "[1]", "value": "binds"}]}
{"binder": "B2", "values": [{"measurement": "binding", "setting": "[2]", "value": "binds"}]}
{"binder": "B3", "values": [{"measurement": "binding", "setting": "[3]", "value": "binds"}]}
{"binder": "B4", "values": [{"measurement": "binding", "setting": "[4]", "value": "binds"}]}
{"binder": "B5", "values": [{"measurement": "binding", "setting": "[5]", "value": "binds"}]}
